Test results from PubChem BioAssay AID330 (DTP/NCI, 2004).
The list is a part of this screen's results and no random one: it is rich in T/C values a quarter to a half above the control, in often repeated tests (any T/C) and in doses without a T/C. Further doses and runs are listed elsewhere. T/C is the treated group as % of the vehicle group. Some entries give survivors of the animals treated and no T/C: the source holds a T/C of zero for them, seemingly a mark for toxic or unscored doses. Some survivor counts are full or nearly so, which does not show that the dose was tolerated: the source hardly ever lists a survival T/C far under the control, and the zero likely stands for such cases as well. Survivors were counted at the toxicity check, usually on the fifth day, unless a day is given; later deaths do not show. Schedule codes are those of the source, read here as Q, the interval in days (D) or hours (H), X, the number of doses. Some doses were run more than once; their values stand side by side, smallest first. For survival time, the PubChem record calls one and a half times the control and up active, and a quarter to a half above the control has no call in these data; cut-offs in other NCI protocols can differ. Counts like (3×) say how often a value occurs here. Some T/C values are followed by the survivors on the day toxicity was checked, most often the fifth; without a count, all were alive then.

Test system: P388 leukemia ip, CD2F1 mice, survival T/C
Assay: NCI In Vivo Anticancer Drug Screen. Data for tumor model P388 Leukemia (intraperitoneal) in CD2F1 (CDF1) mice
Conditions: T/C endpoint: median survival time, higher T/C = longer survival
[1] = dose: 240.0 mg/kg/injection, schedule: Q01DX005 (ip), vehicle: saline with Tween-80
[2] = dose: 400.0 mg/kg/injection, schedule: Q01DX001 (ip), vehicle: saline with Tween-80
[3] = dose: 400.0 mg/kg/injection, schedule: Q04DX003 (ip), vehicle: saline with Tween-80
[4] = dose: 100.0 mg/kg/injection, schedule: Q01DX009 (ip), vehicle: saline
[5] = dose: 200.0 mg/kg/injection, schedule: Q01DX009 (ip), vehicle: saline
[6] = dose: 400.0 mg/kg/injection, schedule: Q01DX009 (ip), vehicle: saline with Tween-80
[7] = dose: 2.8 mg/kg/injection, schedule: Q01DX005 (ip), vehicle: Klucel (hydroxypropylcellulose) (HPC)
[8] = dose: 50.0 mg/kg/injection, schedule: Q04DX003 (ip), vehicle: Klucel (hydroxypropylcellulose) (HPC)
[9] = dose: 50.0 mg/kg/injection, schedule: Q01DX009 (ip), vehicle: saline
[10] = dose: 60.0 mg/kg/injection, schedule: Q01DX005 (ip), vehicle: saline with Tween-80
[11] = dose: 120.0 mg/kg/injection, schedule: Q01DX005 (ip), vehicle: saline with Tween-80
[12] = dose: 200.0 mg/kg/injection, schedule: Q01DX005 (ip), vehicle: Klucel (hydroxypropylcellulose) (HPC)

With CC(/C=C/C1OC(=O)C=CC1C)=C\C(C)C/C=C/C(C)=C/C(CO)C(=O)C(C)C(O)C(C)C/C(C)=C/C(=O)O (configuration not stated) as the molecule, how does the T/C (dose: 25.0 micrograms/kg/injection, schedule: Q01DX005 (ip), vehicle: other) read?
Its T/C is 130 % of control.

What about the T/C (dose: 50.0 micrograms/kg/injection, schedule: Q01DX005 (ip), vehicle: other) of the same molecule?
Its T/C is 130 and 139 % of control.

With CCCCCCCCOCCS(=O)(=O)O as the molecule, how does the survivor count [1] read?
The survivor count was 5 of 6.

What does the source list for Nc1nc(N)c(-c2ccc(Cl)cc2)c(COc2ccc(NC(=O)c3ccc(NC(=O)CCl)cc3)cc2)n1?
survivor count (dose: 100.0 mg/kg/injection, schedule: Q01DX001 (ip), vehicle: saline with Tween-80): 1 of 6; survivor count (dose: 200.0 mg/kg/injection, schedule: Q01DX001 (ip), vehicle: saline with Tween-80): 1 of 6; survivor count [2]: 0 of 6

Which survivor count [3] does the source give for CC1(C)c2ccccc2Nc2ccccc21 here?
Its survivor count is 5 of 6.

With O=C(O)c1ccnc(C(=O)O)c1 as the molecule, how does the survivor count [2] read?
Its survivor count is 3 of 6.

O=C1OCC/C1=C\c1ccco1 was tested. Which survivor count (dose: 200.0 mg/kg/injection, schedule: Q01DX005 (ip), vehicle: acetone) did it give?
Its survivor count is 0 of 5.

What does the source list for Nc1ncnc2c1ncn2C1OC(CO)CC1O (configuration not stated)?
T/C (dose: 37.5 mg/kg/injection, schedule: Q01DX009 (ip), vehicle: Klucel (hydroxypropylcellulose) (HPC)): 131 % of control; T/C (dose: 75.0 mg/kg/injection, schedule: Q01DX009 (ip), vehicle: Klucel (hydroxypropylcellulose) (HPC)): 130 % of control [5 of 6 alive]; survivor count (dose: 150.0 mg/kg/injection, schedule: Q01DX009 (ip), vehicle: Klucel (hydroxypropylcellulose) (HPC)): 3 of 6 and 5 of 6; survivor count (dose: 300.0 mg/kg/injection, schedule: Q01DX009 (ip), vehicle: Klucel (hydroxypropylcellulose) (HPC)): 0 of 6

With N#CC1(C#N)C(CCl)C1(C#N)C#N as the molecule, how does the survivor count [4] read?
The survivor count was 1 of 6.

And the survivor count [5]?
Its survivor count is 0 of 6.

With CC1CC(Cc2ccccc2)C(=O)CC(C)(C)CC(=O)O1 (configuration not stated) as the molecule, how does the T/C (dose: 100.0 mg/kg/injection, schedule: Q04DX003 (ip), vehicle: saline) read?
The T/C was 100, 101, 103, 104 % of control.

And the T/C (dose: 200.0 mg/kg/injection, schedule: Q04DX003 (ip), vehicle: saline)?
Its T/C is 96, 100, 101 % of control (2×).

What about the T/C (dose: 400.0 mg/kg/injection, schedule: Q04DX003 (ip), vehicle: saline) of the same molecule?
The T/C was 97, 105, 106, 125 % of control.

How did the survivor count [6] turn out when CCCCN(CCCC)CC(O)c1c2cccc(Cl)c2cc2c(Cl)cccc12 (configuration not stated) was run?
The survivor count was 6 of 6.

Which survivor count [1] does the source give for COc1cc(C(c2c(O)c3ccccc3oc2=O)c2c(O)c3ccccc3oc2=O)cc(OC)c1O here?
Its survivor count is 3 of 6.

How did the survivor count (dose: 200.0 mg/kg/injection, schedule: Q01DX005 (ip), vehicle: saline + alcohol) turn out when C=C(C)C1CC2=C(C(=O)OC)C=C(O2)C(C(=C)C)C2C=C(C(=O)O2)C2OC12 (configuration not stated) was run?
Its survivor count is 0 of 5.

For CCN1c2ccccc2S(=O)(=O)n2c(Cc3ccccc3)nnc21, which survivor count [2] is on record?
Its survivor count is 6 of 6.

COc1ccc(CCNC(=O)CC2CCN(C)CC2)cc1OC was tested. Which survivor count [3] did it give?
The survivor count was 0 of 6.

Which T/C (dose: 1.4 mg/kg/injection, schedule: Q01DX005 (ip), vehicle: Klucel (hydroxypropylcellulose) (HPC)) does the source give for CCCCCCCCCCC(O)C1CCC(C2CCC(C(O)C(=O)CCCCCCCCCCCC3CC(C)OC3=O)O2)O1 (configuration not stated) here?
Its T/C is 147 % of control.

What about the T/C [7] of the same molecule?
The T/C was 140 % of control.

What about the survivor count [7] of the same molecule?
Its survivor count is 6 of 6.

With CCN(CC)c1ccc2nc3c4ccccc4c(=NC(=O)c4ccccc4-c4c5ccc(N(CC)CC)cc5[o+]c5cc(N(CC)CC)ccc45)cc-3oc2c1 as the molecule, how does the survivor count [5] read?
Its survivor count is 5 of 6.

With N#CN=[N+]([O-])c1cccc([N+](=O)[O-])c1 as the molecule, how does the survivor count (dose: 25.0 mg/kg/injection, schedule: Q04DX003 (ip), vehicle: Klucel (hydroxypropylcellulose) (HPC)) read?
The survivor count was 3 of 6.

And the survivor count [8]?
Its survivor count is 1 of 6.

And the survivor count (dose: 100.0 mg/kg/injection, schedule: Q04DX003 (ip), vehicle: Klucel (hydroxypropylcellulose) (HPC))?
The survivor count was 0 of 6.

What about the survivor count (dose: 200.0 mg/kg/injection, schedule: Q04DX003 (ip), vehicle: Klucel (hydroxypropylcellulose) (HPC)) of the same molecule?
Its survivor count is 0 of 6.

Which survivor count [3] does the source give for Cn1c(Cl)c(C=O)c(=O)n(C)c1=O here?
Its survivor count is 0 of 6.

What does the source list for CCn1c(O)c(N=NC(=S)SCc2ccccc2)c2ccccc21?
survivor count (dose: 12.5 mg/kg/injection, schedule: Q01DX009 (ip), vehicle: suspension in saline): 6 of 6; survivor count (dose: 25.0 mg/kg/injection, schedule: Q01DX009 (ip), vehicle: suspension in saline): 6 of 6; survivor count [9]: 6 of 6; survivor count [4]: 6 of 6

Which survivor count [1] does the source give for N=C(N)n1cc(/C=N/N=C(N)N)cn1 here?
Its survivor count is 1 of 6.

What does the source list for CCCC1(c2ccccc2)C(=O)NCNC1=O?
T/C (dose: 60.0 mg/kg/injection, schedule: Q01DX005 (ip), vehicle: Klucel (hydroxypropylcellulose) (HPC)): 133 % of control; T/C (dose: 120.0 mg/kg/injection, schedule: Q01DX005 (ip), vehicle: Klucel (hydroxypropylcellulose) (HPC)): 126 % of control

How did the survivor count [10] turn out when O=C(CNC(=O)Nc1ccc(Cl)c(Cl)c1)N/N=C/c1cccc(F)c1 was run?
The survivor count was 6 of 6.

What about the survivor count [11] of the same molecule?
Its survivor count is 6 of 6.

And the survivor count [1]?
The survivor count was 6 of 6.

With N#CC1(C#N)C2CCCCC21 (configuration not stated) as the molecule, how does the survivor count [10] read?
The survivor count was 0 of 6.

What about the survivor count [11] of the same molecule?
The survivor count was 0 of 6.

And the survivor count [1]?
The survivor count was 0 of 6.

What does the source list for CN(C)CCCOc1cccc(NC2=C(Cl)C(=O)C(Nc3cccc(OCCCN(C)C)c3)=C(Cl)C2=O)c1?
survivor count (dose: 100.0 mg/kg/injection, schedule: Q01DX005 (ip), vehicle: Klucel (hydroxypropylcellulose) (HPC)): 1 of 5; survivor count [12]: 0 of 5

With O=[N+]([O-])c1cc(CN(CCO)CCO)c(O)c2ncccc12 as the molecule, how does the survivor count [1] read?
The survivor count was 0 of 6.

Which T/C (dose: 200.0 mg/kg/injection, schedule: Q01DX009 (ip), vehicle: saline with Tween-80) does the source give for CCCCCCCCCCCCCCCCCC(=O)O.[Co] here?
The T/C was 125 [5 of 6 alive] and 129 % of control [4 of 6 alive].

What about the survivor count [6] of the same molecule?
The survivor count was 0 of 6 and 2 of 6.

Which survivor count [3] does the source give for CN(C)CCCNC(=O)Cc1cc(O)c2c(c1O)C(=O)c1ccccc1C2=O here?
The survivor count was 2 of 6.

For Nc1ccccc1N=Cc1c(O)c2ccccc2oc1=O, which survivor count (dose: 200.0 mg/kg/injection, schedule: Q01DX005 (ip), vehicle: saline with Tween-80) is on record?
The survivor count was 4 of 6.

Which results are given for CC1OC(OC23C(=O)CC(C)(O)CC2(O)C=CC2=C3C(=O)c3ccc(C4CC(OC5CCC(OC6CC(O)C(O)C(C)O6)C(C)O5)C(O)C(C)O4)c(O)c3C2=O)CCC1O (configuration not stated)?
survivor count (dose: 8.0 mg/kg/injection, schedule: Q01DX005 (ip), vehicle: DMSO): 6 of 6; survivor count [8]: 1 of 6 on day 9

For CC(C)=CCc1c(C)cc2cc3c(c(O)c2c1O)C(O)=CC(=O)C3(CC=C(C)C)CC=C(CO)CO (configuration not stated), which survivor count [12] is on record?
Its survivor count is 1 of 6.

What does the source list for CC(C#N)(Nc1ccccc1)c1ccco1 (configuration not stated)?
survivor count (dose: 25.0 mg/kg/injection, schedule: Q04DX003 (ip), vehicle: other): 6 of 6; survivor count (dose: 50.0 mg/kg/injection, schedule: Q04DX003 (ip), vehicle: other): 6 of 6; survivor count (dose: 100.0 mg/kg/injection, schedule: Q04DX003 (ip), vehicle: other): 4 of 6 and 5 of 6; survivor count (dose: 200.0 mg/kg/injection, schedule: Q04DX003 (ip), vehicle: other): 1 of 6

With CC(=O)O[C@@H]1[C@@H](O)C2=C3[C@]4(C)[C@@H]1C(C)(C)C(=O)C[C@@H]4[C@]3(O)[C@H](OC(C)=O)[C@@]1(C[C@@H]1C)C2=O as the molecule, how does the T/C (dose: 50.0 mg/kg/injection, schedule: Q01DX009 (ip), vehicle: other) read?
The T/C was 132 % of control.

What about the T/C (dose: 50.0 mg/kg/injection, schedule: Q01DX009 (ip), vehicle: saline with Tween-80) of the same molecule?
The T/C was 126 % of control.

What about the survivor count (dose: 100.0 mg/kg/injection, schedule: Q01DX009 (ip), vehicle: other) of the same molecule?
Its survivor count is 5 of 6.

What about the survivor count (dose: 100.0 mg/kg/injection, schedule: Q01DX009 (ip), vehicle: saline with Tween-80) of the same molecule?
The survivor count was 3 of 6.

Which survivor count (dose: 400.0 mg/kg/injection, schedule: Q01DX009 (ip), vehicle: saline) does the source give for O=C1C(O)=C(O)C(=O)C(O)=C1O here?
The survivor count was 5 of 6.

For CCOC(=O)OC(C#N)(c1ccc([N+](=O)[O-])cc1)c1nccc2ccccc12 (configuration not stated), which survivor count [9] is on record?
The survivor count was 4 of 6.

And the survivor count (dose: 100.0 mg/kg/injection, schedule: Q01DX009 (ip), vehicle: suspension in saline)?
The survivor count was 6 of 6.

And the survivor count (dose: 200.0 mg/kg/injection, schedule: Q01DX009 (ip), vehicle: suspension in saline)?
Its survivor count is 6 of 6.
